The values below are quoted from earlier work in patent US5350748A, “3-thio or amino substituted-benzo[b]thiophene-2-carboxamides and 3-oxygen, thio, or amino substituted-benzofuran-2-carboxamides as inhibitors of cell adhesion” (Warner-Lambert Company, priority 1993, dated 1994).

The data set has as its system TPA-mediated CD4 down regulation and HIV expression in HIV-infected cells. The note with it: Hamamoto et al. 1989; cited from earlier work.

Turning to `CN[C@@H]1C[C@H]2O[C@@](C)([C@@H]1OC)n1c3ccccc3c3c4c(c5c6ccccc6n2c5c31)C(=O)NC4` [Staurosporine, staurosporine], the “inhibition of TPA-mediated CD4 down regulation and augmentation of HIV expression” value is listed as “effective TPA inhibitor for both of these actions”.
